{"source": "PubChem BioAssay AID1347075", "about": "(National Center for Advancing Translational Sciences (NCATS), 2019)", "note": "In all, about 400,000 compounds went through this assay and about 5,500 (1.4%) were called active. Inconclusive results, whose numbers are uncertain, are shown with a selection of clear calls. Calls follow the shape of the dose curve; as a rule, active = well fitted cell-killing curve with a large enough effect; inconclusive = small, poorly fitted or top-dose-only effect, or effect the other way; inactive = flat fitted curve, though single readings scatter. Potencies of inconclusive entries are doubtful fits and often do not repeat. % is scaled to controls: 0 for no effect and ±100 for the full control effect; potency is read from the fitted curve at half-maximal effect.", "data": [{"assay": "qHTS assay for MDR1-selective chemotherapeutics: Primary screen using the parental adenocarcinoma cell KB-3-1; also: nearly all actives have a fitted effect of over 60% in size", "conditions": "KB-3-1 viability, CellTiter-Glo ATP luminescence, 72 h; activity change, negative = cytotoxic: at 46.1 µM (top of the series)", "procedure,_shortened": "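Viability of parental KB-3-1 cells, measured by CellTiter-Glo luminescence, followed a 72 h incubation at 37 °C with pinned compounds in phenol-red-free DMEM containing 10% FBS.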", "values": [{"molecule": "Cc1ccccc1C(=O)N1CCC(C(=O)Nc2ccc(F)cc2F)CC1", "Potency": "inconclusive: 8.2 µM [rising, partial curve, poor fit]"}, {"molecule": "COc1ccc(C2CN=NC23CCc2ccccc2C3=O)cc1", "note": "(stereo unspecified)", "Potency": "inconclusive: 29.1 µM [cytotoxic, single point]"}, {"molecule": "O=C(NCCNc1ccc([N+](=O)[O-])cc1C(F)(F)F)c1cccc(F)c1", "Potency": "inconclusive: 16.4 µM [cytotoxic, single point]"}, {"molecule": "CC(C)CNC(=O)COC(=O)c1c2c(nc3ccccc13)/C(=C/c1cccs1)CC2", "Potency": "inactive"}, {"molecule": "O=C(Cc1ccccc1)Nc1cccc(NC(=O)c2ccccc2)c1", "Potency": "inconclusive: 29.1 µM [cytotoxic, single point]"}, {"molecule": "COc1cc(C(=O)Nc2cc(C)ccn2)cc(OC)c1OC", "Potency": "inconclusive: 8.2 µM [rising, partial curve, poor fit]"}, {"molecule": "O=C(NNC(=S)NC(=O)c1cccc([N+](=O)[O-])c1)c1ccc(Br)cc1", "Potency": "inconclusive: 25.9 µM [cytotoxic, single point]"}, {"molecule": "CN(C)c1nc2n(c(=O)n1)C(C#N)CS2", "note": "(stereo unspecified)", "Potency": "inactive"}, {"molecule": "O=C(O)c1ccc(S(=O)(=O)Nc2ccc3c(c2)OCCO3)cc1", "Potency": "inactive"}, {"molecule": "CCOCCCNS(=O)(=O)c1ccc(NC(=O)c2ccccc2)cc1", "Potency": "inconclusive: 29.1 µM [cytotoxic, single point]"}, {"molecule": "Cc1ccc(N2C(=O)N(CC(=O)c3cc(C)ccc3C)C(=O)C2C)cc1", "note": "(stereo unspecified)", "Potency": "inconclusive: 16.4 µM [cytotoxic, single point]"}, {"molecule": "Cn1c(=O)c2c(nc(NCCNC(=O)c3ccco3)n2Cc2ccc(F)cc2)n(C)c1=O", "Potency": "inconclusive: 29.1 µM [cytotoxic, single point]"}, {"molecule": "CCOC(=O)N1CCN(CC(=O)Nc2ccc(Oc3ccccc3)cc2)CC1", "Potency": "inactive"}, {"molecule": "COc1cccc(/C=C2\\N=C(SC)SC2=O)c1OC", "Potency": "inactive"}, {"molecule": "CCn1c(CNC(=O)c2cc(OC)c(OC)c(OC)c2)cc2cc(C)ccc21", "Potency": "inconclusive: 20.6 µM [cytotoxic, single point]"}, {"molecule": "COc1nn(-c2ccccc2)c(=O)c(Cl)c1Cl", "Potency": "inconclusive: 7.31 µM [cytotoxic, partial curve, poor fit]"}, {"molecule": "CCOc1ccc(N=C2NC(=O)C(CC(=O)Nc3ccccc3)S2)cc1", "note": "(stereo unspecified)", "Potency": "inconclusive: 29.1 µM [cytotoxic, single point]"}, {"molecule": "COc1ccc(OC)c(/C=C/c2ccc3ccccc3[n+]2C)c1", "Potency": "inconclusive: 23.1 µM [cytotoxic, partial curve, poor fit]"}, {"molecule": "CS(=O)(=O)c1ccc(-c2cccc(NC(=O)COc3ccccc3)c2)nn1", "Potency": "inconclusive: 3.66 µM [rising, full curve, poor fit]"}, {"molecule": "C=CCc1ccc(OCC(O)CN2CCN(Cc3ccc(Cl)cc3)CC2)c(OC)c1", "note": "(stereo unspecified)", "Potency": "active: 23.1 µM"}, {"molecule": "COc1ccc(-c2nnc(NC(=O)C3CCCN3S(=O)(=O)c3cccs3)o2)cc1", "note": "(stereo unspecified)", "Potency": "inactive"}, {"molecule": "Cc1ccc(C2=NN(C(=O)c3ccco3)C(O)(C(F)(F)F)C2)cc1", "note": "(stereo unspecified)", "activity change, negative = cytotoxic": "inconclusive: -26%"}, {"molecule": "CSc1nc(C)c(C(=O)C[n+]2ccccc2C)cc1C#N", "Potency": "inconclusive: 0.164 µM [cytotoxic, full curve]"}, {"molecule": "COc1cccc(C=Cc2nccc3ccccc23)c1OC", "Potency": "inconclusive: 25.9 µM [cytotoxic, single point]"}, {"molecule": "CC(=O)N1CCN(S(=O)(=O)c2cccc(C(=O)NCCc3ccc(Cl)cc3)c2)CC1", "Potency": "inactive"}, {"molecule": "CC(=O)c1cnc2nc(SCc3cccc(C)c3)nn2c1C", "Potency": "inactive"}, {"molecule": "CCN(CC)CCNc1ccc(Cl)cc1[N+](=O)[O-]", "Potency": "inactive"}, {"molecule": "COc1cccc2sc(Nc3nc(-c4ccncc4)cs3)nc12", "Potency": "active: 5.8 µM"}, {"molecule": "O=C(O)C1OC1(c1ccccc1Cl)c1ccccc1Cl", "note": "(stereo unspecified)", "Potency": "inactive"}, {"molecule": "Cc1nn(-c2ccc(F)cc2)c(Cl)c1/C=C1\\C(=O)Nc2ccccc21", "Potency": "inconclusive: 18.4 µM [cytotoxic, single point]"}, {"molecule": "Cc1ccc2c(N)c(C(=O)c3ccccc3)sc2n1", "Potency": "inconclusive: 25.9 µM [cytotoxic, single point]"}, {"molecule": "CC(C)(C)c1csc(NC(=O)CSC2=NCCS2)n1", "Potency": "inconclusive: 29.1 µM [rising, single point]"}, {"molecule": "CCOC(=O)[C@@H]1[C@H]2COc3cc(OC)ccc3[C@H]2N2C(=O)N(c3ccc(C(F)(F)F)cc3)C(=O)[C@]12C", "Potency": "inconclusive: 29.1 µM [cytotoxic, single point]"}, {"molecule": "CC(C)n1cnc2c(Nc3cccc(Cl)c3)nc(N(CCO)CCCO)nc21", "Potency": "inconclusive: 0.517 µM [cytotoxic, full curve]"}, {"molecule": "COC(=O)C1=CN(c2ccc(OC)cc2OC)C(N)=C(C#N)C1c1ccccc1F", "note": "(stereo unspecified)", "Potency": "active: 1.46 µM"}, {"molecule": "COc1ccc(Br)cc1/C=C/C(=O)c1ccc(NC(C)=O)cc1", "Potency": "active: 4.11 µM"}, {"molecule": "COc1cccc(-c2nn(-c3ccccc3)cc2CN(C)Cc2c(C)nc3ccccn23)c1", "Potency": "inactive"}, {"molecule": "CCN(CC)CCOc1c(Br)ccc2c1sc1nc3n(c(=O)c12)CCC3", "Potency": "inconclusive: 23.1 µM [cytotoxic, single point]"}, {"molecule": "COc1cc(CN2CCCC(C(=O)N3CCc4ccccc4C3)C2)cc(OC)c1OC", "note": "(stereo unspecified)", "Potency": "inconclusive: 16.4 µM [cytotoxic, single point]"}, {"molecule": "NC(=S)N/N=C/c1cccc(O)c1O", "Potency": "inconclusive: 32.6 µM [cytotoxic, single point]"}, {"molecule": "COc1ccc(C(=O)N/N=C/C(C)c2ccccc2)cc1OC", "note": "(stereo unspecified)", "Potency": "inconclusive: 17.8 µM [rising, single point]"}, {"molecule": "CCOc1ccccc1Nc1nnc(SC(C)C(=O)Nc2nc(-c3ccccc3)cs2)s1", "note": "(stereo unspecified)", "Potency": "inconclusive: 4.61 µM [cytotoxic, full curve]"}, {"molecule": "Cc1ccccc1CN1[C@H]2CCCC[C@@H]2OCCS1(=O)=O", "Potency": "inactive"}, {"molecule": "CC1=CC(=O)C(C(C)C)=C/C1=C(\\c1cc(C(C)C)c(OP(=O)(O)O)cc1C)c1ccccc1C(=O)O", "Potency": "active: 16.4 µM"}, {"molecule": "NS(=O)(=O)c1ccc(NC(=S)NCc2ccco2)cc1", "Potency": "inactive"}, {"molecule": "C=C(C)Cn1c(SCC(=O)c2ccccc2)nc2sc3c(c2c1=O)CCCC3", "Potency": "inconclusive: 2.06 µM [cytotoxic, full curve]"}, {"molecule": "CCOC(=O)c1cnc(-n2cc(C)cn2)nc1Nc1ccccc1OCC", "Potency": "inconclusive: 29.1 µM [cytotoxic, single point]"}, {"molecule": "O=C(c1ccc(-n2cccn2)cc1)N1CCN(c2ncccc2C(F)(F)F)CC1", "Potency": "inactive"}, {"molecule": "CCCc1cc(=O)[nH]c(SCC(=O)Nc2sc(C(N)=O)c(C)c2C(=O)OCCOC)n1", "Potency": "active: 8.2 µM"}, {"molecule": "CCOc1ccc(NC(=O)c2sc3nc(N4CCOCC4)c4c(c3c2N)CC(C)(C)OC4)cc1", "Potency": "active: 7.31 µM"}, {"molecule": "Cc1ccc(S(=O)(=O)Nc2cccc3ncccc23)cc1", "Potency": "inactive"}, {"molecule": "Cc1ccc(COC(=O)c2cc(S(=O)(=O)N3CCCCC3)ccc2N2CCOCC2)cc1", "Potency": "inconclusive: 29.1 µM [cytotoxic, single point]"}, {"molecule": "Cn1ncc2c(NNC(=O)C3CCCCC3)ncnc21", "Potency": "inactive"}, {"molecule": "Cn1c(N)c(C(=O)CSc2nnc(-c3c[nH]c4ccccc34)n2C2CC2)c(=O)[nH]c1=O", "Potency": "inconclusive: 16.4 µM [rising, partial curve, poor fit]"}, {"molecule": "Brc1ccc(/C=N/Nc2ccccc2)cc1", "Potency": "inconclusive: 29.1 µM [cytotoxic, single point]"}, {"molecule": "CCn1c(C)c(C(C)=O)c(N2CCN(C(c3ccccc3)c3ccccc3)CC2)nc1=S", "Potency": "inconclusive: 29.1 µM [cytotoxic, single point]"}, {"molecule": "CCn1cc2nc(SCc3cccc(C(F)(F)F)c3)n(Cc3ccc(OC)cc3)c(=O)c2n1", "Potency": "inactive"}, {"molecule": "CC(=O)Nc1ccc(S(=O)(=O)N2CN(c3ccc(C)cc3)c3nc4ccccc4nc32)cc1", "Potency": "inconclusive: 20.6 µM [cytotoxic, single point]"}, {"molecule": "c1ccc2c(c1)CCN(c1ncnc3nc[nH]c13)C2", "Potency": "inconclusive: 25.9 µM [cytotoxic, single point]", "activity change, negative = cytotoxic": "inconclusive: -15.3%"}, {"molecule": "Cc1nn(-c2cc(C)c3ccccc3n2)c2c1CCC2", "Potency": "inconclusive: 29.1 µM [cytotoxic, single point]"}, {"molecule": "CSc1ccc(-c2c(C#N)c(N)nc3c2c(C)nn3-c2ccccc2)cc1", "Potency": "inconclusive: 29.1 µM [cytotoxic, single point]"}, {"molecule": "Cc1ccc(C)c(C(=O)C(C)OC(=O)CN2C(=O)NC3(CC(C)CC(C)(C)C3)C2=O)c1", "note": "(stereo unspecified)", "Potency": "inconclusive: 16.4 µM [rising, single point]"}, {"molecule": "COc1ccc(-c2nc(NC(=O)c3n[nH]c(=O)c4ccccc34)sc2C)cc1", "Potency": "inconclusive: 2.06 µM [cytotoxic, full curve, poor fit]"}, {"molecule": "Cc1[nH]c2ccc(-c3nnc(SCC(=O)N4CCCc5ccccc54)o3)cc2c1C", "Potency": "inconclusive: 0.0116 µM [cytotoxic, full curve]"}, {"molecule": "Cc1c(C(=O)NCC(C)C)sc2nc(-c3ccc(F)cc3)cn12", "Potency": "inconclusive: 18.4 µM [rising, partial curve, poor fit]"}, {"molecule": "CC(=O)Nc1ccc(S(=O)(=O)NC2=C(N3CCN(Cc4ccccc4)CC3)C(=O)c3ccccc3C2=O)cc1", "Potency": "inconclusive: 29.1 µM [cytotoxic, single point]"}, {"molecule": "COc1cc(C(=O)NC2CCCC2)c(Br)c(OC)c1OC", "Potency": "inactive"}, {"molecule": "CCc1ccc(OCC(=O)Nc2cc(-c3nc4cc(C)ccc4o3)ccc2C)cc1", "Potency": "inconclusive: 29.1 µM [cytotoxic, single point]"}, {"molecule": "O=C(CCl)Nc1cc(S(=O)(=O)N2CCCCCC2)ccc1Cl", "Potency": "active: 13 µM"}, {"molecule": "Cc1c(-c2ccccc2)oc2c(C(=O)N3CCN(c4ccccc4F)CC3)cccc2c1=O", "Potency": "inconclusive: 29.1 µM [cytotoxic, single point]"}]}]}
